{"source": "the supplement of paper PMC7666118", "note": "The other results are listed elsewhere or left out."}
{"target": "VKORC1 (UniProt Q9BQB6)", "assay": "dose-dependent thermal stabilisation call (2D-TPP, DLPTP, 10% FDR) (binary (1 = stabilised)); higher = stabilised by the compound", "settings": "system: HL-60 intact cells; concentration range 0.04-10 µM", "experimental": "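2D thermal proteome profiling in intact HL-60 cells treated with BRD-3811 (0, 0.04, 0.29, 2, 10 uM) for 90 min at 37 C, then heated 3 min at one of 12 temperatures (42-63.9 C). Soluble protein was quantified by TMT10 MS. The value is the DLPTP call of the paper: dose-dependent thermal stabilisation over all temperatures at 10% FDR (F-test of a dose-response against a flat model); one experiment, one call per tested protein.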"}
{"compound": "COc1ccc(Cn2ccc3cc(C)c(C(=O)NO)cc32)cc1", "dose-dependent thermal stabilisation call": "inactive: 0"}
